# In all, about 33,000 sequences were measured (“E-score (-0.5 to 0.5)”: median about -0.0034, highest 2% from about 0.25 on). The list shows a part of the results.
# Biological target: T1, Yap3 (UniProt P38749)
# T1 sequence: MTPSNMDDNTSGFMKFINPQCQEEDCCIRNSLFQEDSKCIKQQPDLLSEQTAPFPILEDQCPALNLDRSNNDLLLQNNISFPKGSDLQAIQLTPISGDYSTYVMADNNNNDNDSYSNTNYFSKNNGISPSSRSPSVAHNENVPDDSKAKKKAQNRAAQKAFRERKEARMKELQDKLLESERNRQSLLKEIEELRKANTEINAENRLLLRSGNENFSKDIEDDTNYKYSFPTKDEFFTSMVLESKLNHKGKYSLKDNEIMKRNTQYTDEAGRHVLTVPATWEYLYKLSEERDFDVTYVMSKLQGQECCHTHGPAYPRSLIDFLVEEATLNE
# Assay: PBM E-score (8-mer binding enrichment) (E-score (-0.5 to 0.5)); higher = stronger / more preferred TF binding
# Details: protein concentration: 100 nM; construct: GST-full length
# Outline: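 Full-length yeast transcription factors or their DNA-binding domains, GST-tagged and expressed with PURExpress, were applied at about 100-200 nM to universal all-10-mer Agilent arrays. These arrays had been made double-stranded by primer extension on fresh or once-stripped slides. Detection used fluorescent anti-GST, normalisation used masliner, and E-scores for ungapped eight-base words pooled with reverse complements came from the Universal PBM Analysis Suite.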
row,Sequence,PBM E-score
1,AACGCATG,0.0274
2,ATACATCG,0.0356
3,ATCCATTA,0.0954
4,AGATTTGC,0.192
5,CGCATCCG,-0.218
6,ACTCCTCA,-0.19
7,AGGTCGTA,0.185
8,AAAACCGC,-0.0529
9,AGTACAGC,-0.0284
10,AGTGCAGA,0.0664
11,AACAAGTT,0.0999
12,AAACTCCA,0.00461
13,ATACAATC,0.146
14,CTCACACC,-0.129
15,ACTACCAG,-0.159
16,AGTCATGG,0.0946
17,CGTGTGGC,-0.132
18,TCTATCAA,0.096
19,GCTATGCC,-0.216
20,CCCTGCTA,-0.155
21,AGAGAATG,0.144
22,AATAAAGT,0.262
23,ACCATGCG,0.0314
24,GGGTCGCA,-0.114

# No new results follow: an excerpt of the list.
row,Sequence,PBM E-score
1,AACGCATG,0.0274
2,ATACATCG,0.0356
3,ATCCATTA,0.0954
4,AGATTTGC,0.192
5,CGCATCCG,-0.218
6,ACTCCTCA,-0.19
7,AGGTCGTA,0.185
8,AAAACCGC,-0.0529
9,AGTACAGC,-0.0284
10,AGTGCAGA,0.0664
11,AACAAGTT,0.0999
12,AAACTCCA,0.00461
13,ATACAATC,0.146
14,CTCACACC,-0.129
15,ACTACCAG,-0.159
16,AGTCATGG,0.0946
17,CGTGTGGC,-0.132
18,TCTATCAA,0.096
19,GCTATGCC,-0.216
20,CCCTGCTA,-0.155
21,AGAGAATG,0.144
22,AATAAAGT,0.262
23,ACCATGCG,0.0314

# Further results:

row,Sequence,PBM E-score
1,ATCGCCAA,-0.0269
2,GCTCTTGA,0.00079
3,CGCCTATC,0.0395
4,CATTGGTA,0.0377
5,ATGTCCTC,0.0898
6,AAGATGAA,0.0246
7,ACCCCTAT,0.0272
8,AGTATCCA,0.0266
9,ATCAAGAA,0.188
10,CAGTGTGA,0.137
11,CGATGTGC,-0.072
12,CGACCTGC,-0.223
13,GTCAACGA,0.11
14,TAACGCCA,0.082
15,TGATTACA,0.0968
16,AGCTACTG,-0.0662
17,CAACCTCC,-0.073
18,ATGCCTAG,-0.104
19,ACGTAGAG,-0.0452
20,CTGTATGA,-0.0424
21,CACCCTCC,-0.212
22,TAACTACA,0.121
23,CAAAACAC,0.0509
24,CTGCGCAA,0.091

row,Sequence,PBM E-score
1,CGATCCGA,0.112
2,CCCGACTC,-0.189
3,AGTGGAAG,-0.173
4,ATGAACTG,0.188
5,GATTGTTA,0.118
6,CCAGTAGC,0.00327
7,CCTCAGCG,0.0106
8,AACGAGCT,-0.091
9,AAACCTTC,-0.0816
10,TGATACAA,0.107
11,GTGCGTTA,0.0629
12,GATGGCCA,0.0238
13,ACTCCCAC,-0.173
14,CACCCTGA,-0.184
15,GACAGGAA,0.0869
16,ACCATTCT,-0.0214
17,AGTACCAT,0.0515
18,GCTCGCTA,-0.0227
19,AGTGAGAA,0.0772
20,TGGAATAA,0.061
21,ATAGGAGG,-0.179
22,CGACCGTC,-0.182
23,ACAACCGA,0.207
24,ATTATGCC,0.119

row,Sequence,PBM E-score
1,CAGACATG,-0.0317
2,AGCTACCC,-0.128
3,AAACCTCG,-0.132
4,ACAGTCCT,0.00188
5,ATCCTCAC,0.083
6,ATTGAAGA,-0.0376
7,AATTCACT,0.196
8,AGCGCGCG,0.165
9,GAGATTAC,0.173
10,CGCACGGA,0.0293
11,TCGCACCA,-0.0254
12,GCGGCCAC,-0.235
13,CGGTCGCC,-0.2
14,CTACACCC,-0.101
15,ATAAATAT,0.267
16,CTGAGGGC,-0.331
17,CGGTATCC,-0.117
18,ACCACACT,0.043
19,TTACCCAA,0.181
20,CGTGTAAC,-0.00675
21,ATCCCTCC,-0.0937
22,TAGTGCGA,0.00223

# Source: the supplement of paper PMC3334620
